Here are results for four molecules from doi:10.1101/669812.

Protein sequences, listed by entry. Tags and fused reporters are not part of them. Residues count along the entry.
UniProt Q7Z6A9, residues 31-289: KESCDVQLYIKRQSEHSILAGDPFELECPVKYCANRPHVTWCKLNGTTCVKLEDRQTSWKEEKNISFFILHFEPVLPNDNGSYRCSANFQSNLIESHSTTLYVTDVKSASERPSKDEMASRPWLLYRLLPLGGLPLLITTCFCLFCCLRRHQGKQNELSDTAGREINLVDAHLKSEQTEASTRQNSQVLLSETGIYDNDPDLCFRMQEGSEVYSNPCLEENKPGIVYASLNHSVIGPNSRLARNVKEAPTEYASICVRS
UniProt Q15116, residues 25-288: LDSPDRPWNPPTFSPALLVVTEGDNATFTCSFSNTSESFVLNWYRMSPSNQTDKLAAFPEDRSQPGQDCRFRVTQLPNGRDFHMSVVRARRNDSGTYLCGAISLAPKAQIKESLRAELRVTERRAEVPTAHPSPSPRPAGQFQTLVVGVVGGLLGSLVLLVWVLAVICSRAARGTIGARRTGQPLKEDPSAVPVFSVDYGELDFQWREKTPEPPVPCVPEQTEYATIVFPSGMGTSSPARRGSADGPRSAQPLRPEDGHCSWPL
UniProt P10747, residues 19-220: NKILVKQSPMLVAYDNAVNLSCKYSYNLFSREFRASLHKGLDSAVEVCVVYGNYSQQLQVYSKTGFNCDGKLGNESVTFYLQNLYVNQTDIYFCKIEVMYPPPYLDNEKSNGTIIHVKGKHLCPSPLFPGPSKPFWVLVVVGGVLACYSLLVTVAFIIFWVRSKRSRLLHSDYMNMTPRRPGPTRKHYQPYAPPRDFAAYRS
UniProt P62993: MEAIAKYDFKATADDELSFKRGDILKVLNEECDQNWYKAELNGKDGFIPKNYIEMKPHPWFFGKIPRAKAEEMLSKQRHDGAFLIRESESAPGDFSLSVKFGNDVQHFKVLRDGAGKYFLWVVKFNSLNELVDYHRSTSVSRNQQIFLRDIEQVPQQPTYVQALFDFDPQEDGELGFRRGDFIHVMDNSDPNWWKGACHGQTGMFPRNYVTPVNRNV
UniProt P43403: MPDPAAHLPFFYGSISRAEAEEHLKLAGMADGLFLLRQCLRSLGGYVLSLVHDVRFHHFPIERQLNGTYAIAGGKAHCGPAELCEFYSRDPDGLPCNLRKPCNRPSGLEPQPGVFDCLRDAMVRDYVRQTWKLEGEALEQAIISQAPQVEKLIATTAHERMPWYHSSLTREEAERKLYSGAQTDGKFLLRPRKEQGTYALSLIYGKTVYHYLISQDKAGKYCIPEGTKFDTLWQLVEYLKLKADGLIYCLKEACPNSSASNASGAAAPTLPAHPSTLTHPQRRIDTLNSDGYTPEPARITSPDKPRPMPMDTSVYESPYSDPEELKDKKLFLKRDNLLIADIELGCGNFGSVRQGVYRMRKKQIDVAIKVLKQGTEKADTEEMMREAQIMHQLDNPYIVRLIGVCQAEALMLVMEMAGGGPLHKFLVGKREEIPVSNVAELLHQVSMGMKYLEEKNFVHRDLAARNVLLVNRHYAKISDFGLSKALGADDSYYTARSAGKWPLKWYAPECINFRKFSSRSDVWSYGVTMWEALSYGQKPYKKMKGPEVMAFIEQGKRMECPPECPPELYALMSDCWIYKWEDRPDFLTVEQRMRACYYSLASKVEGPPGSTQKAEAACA
UniProt P27986: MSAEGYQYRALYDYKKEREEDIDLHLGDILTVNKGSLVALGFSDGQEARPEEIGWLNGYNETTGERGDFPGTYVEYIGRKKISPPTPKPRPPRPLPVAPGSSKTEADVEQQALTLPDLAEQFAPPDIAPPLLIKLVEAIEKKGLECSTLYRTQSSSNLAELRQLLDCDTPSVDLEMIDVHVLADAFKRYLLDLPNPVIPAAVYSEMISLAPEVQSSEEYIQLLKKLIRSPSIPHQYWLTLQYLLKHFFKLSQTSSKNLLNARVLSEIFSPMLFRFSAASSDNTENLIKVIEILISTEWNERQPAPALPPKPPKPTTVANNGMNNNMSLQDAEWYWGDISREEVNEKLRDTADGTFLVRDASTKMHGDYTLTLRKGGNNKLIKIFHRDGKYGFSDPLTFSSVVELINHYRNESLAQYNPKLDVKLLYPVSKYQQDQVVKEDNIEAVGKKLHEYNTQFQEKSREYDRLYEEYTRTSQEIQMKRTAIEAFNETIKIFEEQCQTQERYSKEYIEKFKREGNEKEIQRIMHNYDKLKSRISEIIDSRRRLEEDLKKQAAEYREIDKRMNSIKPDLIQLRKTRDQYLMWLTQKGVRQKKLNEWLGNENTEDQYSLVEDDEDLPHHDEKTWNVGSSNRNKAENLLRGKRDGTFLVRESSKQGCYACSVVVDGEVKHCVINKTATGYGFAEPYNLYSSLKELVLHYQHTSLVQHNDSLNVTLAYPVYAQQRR

Like-named read-outs stand apart in the source and are kept apart here. No constants are given. Whether binding was seen depends on the method and setting. In cells and extracts the contact can be indirect. Some results given as binding are weak or reduced against the parent protein; the word gives no strength.

Assay in all cases: co-IP
Experiment [1] addresses BTLA (WT)-mGFP (UniProt Q7Z6A9).
The target in experiment [2] is PD-1 (WT)-mGFP (UniProt Q15116).
In experiment [3] the target is CD28 (human (endogenous in Jurkat)) (UniProt P10747).
Experiment [4] has as its target BTLA (WT)-mGFP (UniProt Q7Z6A9). The source holds these as a separate data set.

For GRB2 (from UniProt P62993 1-217), the binding result in experiment [1] is “no binding”.
With “ZAP70 (from UniProt P43403 1-619) (enzyme)”, the binding entry in experiment [1] and in experiment [2] was “no binding” each time.
As to “p85α, the regulatory subunit of PI3 kinases (from UniProt P27986 1-724)”, the binding result in experiment [1] is listed as “no binding”; in experiment [3], “binds”.

B1: SAP (protein, UniProt O60880 1-128)
chain: MDAVAVYHGKISRETGEKLLLATGLDGSYLLRDSESVPGVYCLCVLYHGYIYTYRVSQTETGSWSAETAPGVHKRYFRKIKNLISAFQKPDQGIVIPLQYPVEKKSSARSTQGTTGIREDPDVCLKAP
Regarding B1, the binding result in experiment [4] is on record as “no binding”.
